Results are given in words; binding and its absence hold for the method and conditions named.
Biological target: T1, EB1 (MT plus end-binding protein) (UniProt Q9XZ57)
T1 sequence: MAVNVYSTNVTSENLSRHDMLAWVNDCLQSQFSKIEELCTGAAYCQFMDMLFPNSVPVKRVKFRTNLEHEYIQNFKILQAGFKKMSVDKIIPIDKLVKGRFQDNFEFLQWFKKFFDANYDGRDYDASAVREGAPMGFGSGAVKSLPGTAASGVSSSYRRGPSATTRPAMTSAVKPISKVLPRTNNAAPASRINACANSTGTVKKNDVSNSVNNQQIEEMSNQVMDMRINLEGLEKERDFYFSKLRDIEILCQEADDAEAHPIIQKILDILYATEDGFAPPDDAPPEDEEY
Assay: SEC; purified F1, EB1 and F1+EB1 run on a sizing column; peak shift looked for; both purified

binding: no binding
B1: CP190 fragment F1 (aa 1-209; BTB domain plus linker) (domain or fragment, UniProt Q24478 1-209)
chain: MGEVKSVKVDNWGVFFLQKLQNFFNKTDYCDLTLQFRDNSQLKVHRLVLSACTDYFNVLEQTCEIVDDALIMPNEFQADVVVPIVNFMYTGTLEFELKMYGKLLRTAKEMNMTVLLKLLEAHRRTMENVNRQQRPPSPKGIRRRTVGQPSSGLPQQRVLGPSPQSRNVATPIAQRANTQRGSTGNTMSRTSGGSNRSPYGDSSNVKQEP

Reference: article PMC4674064, “Newly Characterized Region of CP190 Associates with Microtubules and Mediates Proper Spindle Morphology in Drosophila Stem Cells” (PLoS ONE, 2015)
